Laboratory results taken from US8124782B2, “Process for the preparation of 4-{4-[({[4 chloro-3-(trifluoromethyl)phenyl]amino}carbonyl)amino]phenoxy}-N-methylpyridine-2-carboxamide” (Bayer Pharma Aktiengesellschaft, priority 2004, dated 2012).
Some results were stated once for a whole list of compounds, not compound by compound.

Assay: solubility in water alone
Assay type: physicochemical
Details: at 25° C.

| Compound | solubility in water [mg/100 ml] |
| --- | --- |
| CNC(=O)c1cc(Oc2ccc(NC(=O)Nc3ccc(Cl)c(C(F)(F)F)c3)cc2)ccn1.Cc1ccc(S(=O)(=O)O)cc1 [formula (I), 4-{4-[({[4-Chloro-3-(trifluoromethyl)phenyl]amino}carbonyl)amino]phenoxy}-N-methylpyridine-2-carboxamide tosylate] | < 0.01 |
| CNC(=O)c1cc(Oc2ccc(NC(=O)Nc3ccc(Cl)c(C(F)(F)F)c3)cc2)ccn1 [formula (II), 4-{4-[({[4-Chloro-3-(trifluoromethyl)phenyl]amino}carbonyl)amino]phenoxy}-N-methylpyridine-2-carboxamide] | < 0.01 |
